Measurements as given in PMC4231743.
Positions count from the first letter of the chain named. Numbers in names are those of the source. Results are given in words; binding and its absence hold for the method and conditions named. For part of these data: Binding seen in cells or lysates may run through a third protein. Some binding calls cover weakened binding; strength is not graded here. For part of these data: Where a sequence is shown, tags or fusion partners need not be part of it. Each block holds one molecule with its values, some of them ahead of it.

Amino acid sequences for entries named in this document (tags omitted).
UniProt Q9WTL8: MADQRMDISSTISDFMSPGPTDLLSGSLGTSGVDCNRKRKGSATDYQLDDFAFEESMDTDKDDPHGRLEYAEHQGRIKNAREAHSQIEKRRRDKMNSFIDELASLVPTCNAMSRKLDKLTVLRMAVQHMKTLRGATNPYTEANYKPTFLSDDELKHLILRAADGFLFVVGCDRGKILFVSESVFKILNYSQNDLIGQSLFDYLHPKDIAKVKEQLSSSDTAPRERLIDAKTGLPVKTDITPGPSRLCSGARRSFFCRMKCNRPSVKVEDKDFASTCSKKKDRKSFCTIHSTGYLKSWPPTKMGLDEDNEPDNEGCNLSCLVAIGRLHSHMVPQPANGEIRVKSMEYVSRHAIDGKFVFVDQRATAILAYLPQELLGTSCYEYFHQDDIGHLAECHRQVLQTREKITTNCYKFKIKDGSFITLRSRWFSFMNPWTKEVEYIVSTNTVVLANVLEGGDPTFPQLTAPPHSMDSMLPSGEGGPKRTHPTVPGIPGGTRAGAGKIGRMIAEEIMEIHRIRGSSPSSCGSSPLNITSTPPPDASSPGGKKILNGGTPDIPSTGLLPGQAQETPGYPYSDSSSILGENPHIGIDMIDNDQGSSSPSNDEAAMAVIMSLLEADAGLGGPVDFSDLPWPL
UniProt O54943: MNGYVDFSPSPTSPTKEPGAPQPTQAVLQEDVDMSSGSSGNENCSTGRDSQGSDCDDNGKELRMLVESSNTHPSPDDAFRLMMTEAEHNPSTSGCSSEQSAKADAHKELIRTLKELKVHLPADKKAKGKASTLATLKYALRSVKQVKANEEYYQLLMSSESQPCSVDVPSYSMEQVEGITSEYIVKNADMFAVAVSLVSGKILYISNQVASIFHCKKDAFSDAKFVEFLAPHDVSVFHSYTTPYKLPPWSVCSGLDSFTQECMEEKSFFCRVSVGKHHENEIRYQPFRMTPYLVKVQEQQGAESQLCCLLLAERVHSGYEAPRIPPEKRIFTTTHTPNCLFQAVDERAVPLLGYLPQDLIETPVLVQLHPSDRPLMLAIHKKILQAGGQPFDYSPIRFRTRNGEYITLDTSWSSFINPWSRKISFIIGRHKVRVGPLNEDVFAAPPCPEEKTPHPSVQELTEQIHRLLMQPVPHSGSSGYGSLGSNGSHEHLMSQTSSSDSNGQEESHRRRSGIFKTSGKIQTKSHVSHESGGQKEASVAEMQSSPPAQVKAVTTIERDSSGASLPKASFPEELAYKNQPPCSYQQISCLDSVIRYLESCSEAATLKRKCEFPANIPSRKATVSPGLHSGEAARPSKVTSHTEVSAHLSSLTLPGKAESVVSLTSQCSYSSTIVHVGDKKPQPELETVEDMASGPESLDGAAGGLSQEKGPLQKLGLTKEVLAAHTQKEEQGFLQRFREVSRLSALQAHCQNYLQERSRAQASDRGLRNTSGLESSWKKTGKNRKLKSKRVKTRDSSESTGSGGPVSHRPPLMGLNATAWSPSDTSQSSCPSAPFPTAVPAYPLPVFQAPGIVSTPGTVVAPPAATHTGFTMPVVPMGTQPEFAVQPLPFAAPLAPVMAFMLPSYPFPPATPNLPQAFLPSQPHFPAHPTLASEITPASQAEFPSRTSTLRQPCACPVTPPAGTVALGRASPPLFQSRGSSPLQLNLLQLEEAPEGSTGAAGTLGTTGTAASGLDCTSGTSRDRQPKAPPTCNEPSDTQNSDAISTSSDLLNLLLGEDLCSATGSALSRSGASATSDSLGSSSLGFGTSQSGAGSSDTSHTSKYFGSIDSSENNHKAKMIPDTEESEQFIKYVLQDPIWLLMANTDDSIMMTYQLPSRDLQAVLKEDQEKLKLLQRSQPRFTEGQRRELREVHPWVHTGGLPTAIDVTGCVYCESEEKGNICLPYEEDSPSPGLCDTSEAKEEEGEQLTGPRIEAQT
UniProt O00327: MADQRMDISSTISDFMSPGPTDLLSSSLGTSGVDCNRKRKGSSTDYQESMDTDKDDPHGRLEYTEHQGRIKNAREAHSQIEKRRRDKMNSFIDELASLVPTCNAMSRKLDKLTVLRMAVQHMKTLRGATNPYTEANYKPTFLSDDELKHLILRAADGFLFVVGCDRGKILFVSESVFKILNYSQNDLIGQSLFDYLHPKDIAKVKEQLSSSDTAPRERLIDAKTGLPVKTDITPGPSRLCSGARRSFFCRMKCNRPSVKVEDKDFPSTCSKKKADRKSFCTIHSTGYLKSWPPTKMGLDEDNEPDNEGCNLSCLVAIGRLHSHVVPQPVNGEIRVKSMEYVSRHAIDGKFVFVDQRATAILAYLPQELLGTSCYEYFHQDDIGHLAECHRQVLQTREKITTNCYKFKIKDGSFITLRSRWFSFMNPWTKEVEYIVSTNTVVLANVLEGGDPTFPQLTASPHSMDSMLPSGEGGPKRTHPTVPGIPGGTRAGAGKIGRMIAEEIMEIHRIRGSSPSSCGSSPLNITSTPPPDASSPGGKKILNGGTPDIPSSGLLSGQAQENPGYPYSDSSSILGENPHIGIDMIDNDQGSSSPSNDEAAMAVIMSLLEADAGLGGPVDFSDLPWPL

Tests used:
[1] = molecular target: T1, Flag-PXDLS*3 peptide (expressed in NIH3T3) (UniProt P37275); test: co-IP; Flag tagged transgenes expressed in NIH3T3 cells, lysates immunoprecipitated with Flag antibody conjugated beads; endogenous proteins by immunoblot
T1 sequence: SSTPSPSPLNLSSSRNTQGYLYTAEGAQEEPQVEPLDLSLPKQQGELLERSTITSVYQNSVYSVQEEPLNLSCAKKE

[2] = molecular target: T2, Flag-PXDLS*3 peptide (expressed in HEK 293T) (UniProt P37275); test: co-IP; Flag tagged transgenes expressed in HEK 293T cells, lysates immunoprecipitated with Flag antibody conjugated beads; endogenous proteins by immunoblot
T2 sequence: T1 sequence

[3] = molecular target: T3, REV-ERBα (endogenous, mouse liver nuclear extract) (mouse (endogenous in liver)) (UniProt Q3UV55); test: co-IP; mouse liver nuclear extracts (ZT4), immunoprecipitation with anti BMAL1 or anti REV-ERBα antibodies, 12 h at 4°C, protein A/G agarose; Rap1 antibody as negative control
T3 sequence: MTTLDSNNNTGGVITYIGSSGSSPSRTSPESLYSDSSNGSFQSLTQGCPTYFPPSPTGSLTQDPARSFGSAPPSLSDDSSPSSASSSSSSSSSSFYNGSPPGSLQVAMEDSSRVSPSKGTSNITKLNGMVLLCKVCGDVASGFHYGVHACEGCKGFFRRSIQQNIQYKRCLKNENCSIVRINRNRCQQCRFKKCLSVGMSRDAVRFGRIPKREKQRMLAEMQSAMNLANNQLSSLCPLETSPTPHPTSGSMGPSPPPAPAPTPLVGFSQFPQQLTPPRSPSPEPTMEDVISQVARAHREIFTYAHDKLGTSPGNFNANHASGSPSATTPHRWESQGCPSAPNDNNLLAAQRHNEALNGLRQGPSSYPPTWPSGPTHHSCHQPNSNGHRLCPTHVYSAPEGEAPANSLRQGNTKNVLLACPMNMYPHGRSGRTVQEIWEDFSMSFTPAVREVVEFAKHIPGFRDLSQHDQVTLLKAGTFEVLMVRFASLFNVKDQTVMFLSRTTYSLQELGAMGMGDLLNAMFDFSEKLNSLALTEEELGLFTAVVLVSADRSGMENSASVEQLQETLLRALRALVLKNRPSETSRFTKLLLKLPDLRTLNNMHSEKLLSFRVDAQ

[4] = molecular target: T2, Flag-PXDLS*3 peptide (expressed in HEK 293T); test: pull-down; Flag tagged baits expressed in HEK 293T, held on Flag antibody conjugated beads, stringent washes, then incubated with mouse liver nuclear extracts; SDS-PAGE and immunoblot; only the target purified
[5] = molecular target: T4, GST-PXDLS*3 recombinant peptide (UniProt P37275); test: pull-down; recombinant GST peptides coupled to glutathione beads, incubated with mouse liver nuclear extracts; SDS-PAGE and immunoblot; only the target purified
T4 sequence: T1 sequence

[6] = molecular target: BMAL1 (endogenous, mouse liver nuclear extract) (mouse (endogenous in liver)) (UniProt Q9WTL8); test: co-IP; mouse liver nuclear extracts (ZT4), immunoprecipitation with anti BMAL1 or anti REV-ERBα antibodies, 12 h at 4°C, protein A/G agarose; Rap1 antibody as negative control
[7] = molecular target: recombinant His-BMAL1 (mouse) (UniProt Q9WTL8); test: pull-down; recombinant His-BMAL1 coupled to beads, incubated with in vitro translated [35S] labeled REV-ERBα for 3 h at room temperature, washed with NP40 buffer (150 mM NaCl, 100 mM Tris pH-7.5, 2 mM EDTA, 1%NP40); autoradiography; only the target purified
[8] = molecular target: recombinant His-BMAL1 (mouse) (UniProt Q9WTL8); test: pull-down; recombinant His-BMAL1 coupled to beads and in vitro translated [35S] labeled REV-ERBα in the presence or absence of excess recombinant GST-PXDLS*3 or GST-Mut PXDLS*3 peptide; autoradiography; only the target purified
BMAL1-Flag (mouse) = BMAL1-Flag (mouse) (UniProt Q9WTL8); test: co-IP; BMAL1-Flag and REV-ERBα (wild type or P72A) co-expressed in NIH3T3 cells, lysates immunoprecipitated with Flag antibody; Rap1 antibody as control
[9] = molecular target: recombinant His-BMAL1 (mouse) (UniProt Q9WTL8); test: pull-down; competition: excess recombinant GST-PXDLS*3 added to His-BMAL1 on beads with in vitro translated [35S] labeled REV-ERBα; read by loss of REV-ERBα; both purified

- binding [1]: no binding
Molecule: PER2 (endogenous, NIH3T3 cells) (from UniProt O54943 1-1257)

- binding [6]: binds
B1: REV-ERBα (endogenous, mouse liver nuclear extract) (protein, UniProt Q3UV55 1-615)
chain: T3 sequence

- binding (BMAL1-Flag (mouse)): binds
B3: REV-ERBα (wild type, expressed in NIH3T3) (protein, UniProt Q3UV55 1-615)
chain: T3 sequence

- binding (BMAL1-Flag (mouse)): binds
B4: REV-ERBα P72A (PXDLS mutant, expressed in NIH3T3) (protein, UniProt Q3UV55 1-615)
chain: T3 sequence with P72A

- binding [9]: binds
B5: GST-PXDLS*3 recombinant peptide (peptide, UniProt P37275 700-776)
chain: T1 sequence

- binding [2]: no binding
B6: CRY1 (endogenous, HEK 293T cells) (protein, UniProt Q16526 1-586)
chain: MGVNAVHWFRKGLRLHDNPALKECIQGADTIRCVYILDPWFAGSSNVGINRWRFLLQCLEDLDANLRKLNSRLFVIRGQPADVFPRLFKEWNITKLSIEYDSEPFGKERDAAIKKLATEAGVEVIVRISHTLYDLDKIIELNGGQPPLTYKRFQTLISKMEPLEIPVETITSEVIEKCTTPLSDDHDEKYGVPSLEELGFDTDGLSSAVWPGGETEALTRLERHLERKAWVANFERPRMNANSLLASPTGLSPYLRFGCLSCRLFYFKLTDLYKKVKKNSSPPLSLYGQLLWREFFYTAATNNPRFDKMEGNPICVQIPWDKNPEALAKWAEGRTGFPWIDAIMTQLRQEGWIHHLARHAVACFLTRGDLWISWEEGMKVFEELLLDADWSINAGSWMWLSCSSFFQQFFHCYCPVGFGRRTDPNGDYIRRYLPVLRGFPAKYIYDPWNAPEGIQKVAKCLIGVNYPKPMVNHAEASRLNIERMKQIYQQLSRYRGLGLLASVPSNPNGNGGFMGYSAENIPGCSSSGSCSQGSGILHYAHGDSQQTHLLKQGRSSMGTGLSGGKRPSQEEDTQSIGPKVQRQSTN

- binding [1]: no binding
B8: CRY1 (endogenous, NIH3T3 cells) (protein, UniProt P97784 1-606)
chain: MGVNAVHWFRKGLRLHDNPALKECIQGADTIRCVYILDPWFAGSSNVGINRWRFLLQCLEDLDANLRKLNSRLFVIRGQPADVFPRLFKEWNITKLSIEYDSEPFGKERDAAIKKLATEAGVEVIVRISHTLYDLDKIIELNGGQPPLTYKRFQTLVSKMEPLEMPADTITSDVIGKCMTPLSDDHDEKYGVPSLEELGFDTDGLSSAVWPGGETEALTRLERHLERKAWVANFERPRMNANSLLASPTGLSPYLRFGCLSCRLFYFKLTDLYKKVKKNSSPPLSLYGQLLWREFFYTAATNNPRFDKMEGNPICVQIPWDKNPEALAKWAEGRTGFPWIDAIMTQLRQEGWIHHLARHAVACFLTRGDLWISWEEGMKVFEELLLDADWSINAGSWMWLSCSSFFQQFFHCYCPVGFGRRTDPNGDYIRRYLPVLRGFPAKYIYDPWNAPEGIQKVAKCLIGVNYPKPMVNHAEASRLNIERMKQIYQQLSRYRGLGLLASVPSNSNGNGGLMGYAPGENVPSCSSSGNGGLMGYAPGENVPSCSGGNCSQGSGILHYAHGDSQQTHSLKQGRSSAGTGLSSGKRPSQEEDAQSVGPKVQRQSSN

More lines, now with the values behind:

Molecule: BMAL1 (endogenous, HEK 293T cells) (from UniProt O00327 1-626)
- binding [2]: binds

Molecule: BMAL1 (endogenous, mouse liver nuclear extract) (from UniProt Q9WTL8 1-632)
- binding [3]: binds
- binding [4]: binds
- binding [5]: binds

Molecule: BMAL1 (endogenous, NIH3T3 cells) (from UniProt Q9WTL8 1-632)
- binding [1]: binds

B2: in vitro translated [35S] labeled REV-ERBα (protein, UniProt Q3UV55 1-615)
chain: T3 sequence
modifications: [35S] methionine labeled
- binding [7]: binds
- binding [8]: binds

B7: CLOCK (endogenous, mouse liver nuclear extract) (protein, UniProt O08785 1-855)
chain: MVFTVSCSKMSSIVDRDDSSIFDGLVEEDDKDKAKRVSRNKSEKKRRDQFNVLIKELGSMLPGNARKMDKSTVLQKSIDFLRKHKETTAQSDASEIRQDWKPTFLSNEEFTQLMLEALDGFFLAIMTDGSIIYVSESVTSLLEHLPSDLVDQSIFNFIPEGEHSEVYKILSTHLLESDSLTPEYLKSKNQLEFCCHMLRGTIDPKEPSTYEYVRFIGNFKSLTSVSTSTHNGFEGTIQRTHRPSYEDRVCFVATVRLATPQFIKEMCTVEEPNEEFTSRHSLEWKFLFLDHRAPPIIGYLPFEVLGTSGYDYYHVDDLENLAKCHEHLMQYGKGKSCYYRFLTKGQQWIWLQTHYYITYHQWNSRPEFIVCTHTVVSYAEVRAERRRELGIEESLPETAADKSQDSGSDNRINTVSLKEALERFDHSPTPSASSRSSRKSSHTAVSDPSSTPTKIPTDTSTPPRQHLPAHEKMTQRRSSFSSQSINSQSVGPSLTQPAMSQAANLPIPQGMSQFQFSAQLGAMQHLKDQLEQRTRMIEANIHRQQEELRKIQEQLQMVHGQGLQMFLQQSNPGLNFGSVQLSSGNSNIQQLTPVNMQGQVVPANQVQSGHISTGQHMIQQQTLQSTSTQQSQQSVMSGHSQQTSLPSQTPSTLTAPLYNTMVISQPAAGSMVQIPSSMPQNSTQSATVTTFTQDRQIRFSQGQQLVTKLVTAPVACGAVMVPSTMLMGQVVTAYPTFATQQQQAQTLSVTQQQQQQQQQPPQQQQQQQQSSQEQQLPSVQQPAQAQLGQPPQQFLQTSRLLHGNPSTQLILSAAFPLQQSTFPPSHHQQHQPQQQQQLPRHRTDSLTDPSKVQPQ
- binding [3]: binds
- binding [6]: binds
- binding [4]: binds
- binding [5]: binds
